Patent publication US7919487B2, “Heteroaryl compounds” (Synta Pharmaceuticals Corporation, priority 2004, dated 2011)
The name of at least one read-out is uncertain.

System: IL-12 production in human PBMC or THP-1 cells
Test: Human in vitro assay: inhibition of IL-12 production in human PBMC or THP-1 cells (ELISA)
Type: cell-based
Details: IFNγ plus LPS or SAC stimulation, representative in vitro data
From the text: The biological activities of the compounds of the invention can be evaluated by a number of cell-based assays. One of such assays can be conducted using cells from human peripheral blood mononuclear cells (PBMC) or human monocytic cell line (THP-1). The cells are stimulated with a combination of human interferon-γ (IFNγ) and lipopolysaccharide or a combination of IFNγ and Staphylococcus aureus Cowan I in the presence of a test compound. The level of inhibition of IL-12 production can be measured by determining the amount of p70 by using a sandwich ELISA assay with anti-human IL-12 antibodies. IC50 of the test compound can then be determined. Specifically, PBMC or THP-1 cells are incubated with the test compound. Cell viability was assessed using the bioreduction of MTS [3-(4,5-dimethylthiazol-2-yl)-5-(3-carboxymethoxyphenyl)-2-(4-sulfophenyl)-2H-tetrazolium] (Promega, Madison, Wis.).
Reagents. Staphylococcus aureus Cowan I (SAC) was obtained from Calbiochem (La Jolla, Calif.), and lipopolysaccharide (LPS, Serratia marscencens) was obtained from Sigma (St Louis, Mo.). […]
Human In Vitro Assay. […] Cell viability was assessed using the bioreduction of MTS. Cell survival was estimated by determining the ratio of the absorbance in compound-treated groups versus compound-free control. […]

SMILES: COCc1cc(N/N=C/c2cccc(C)c2)nc(-c2ccncc2)n1 [Compound 142, (E)-4-(methoxymethyl)-6-(2-(3-methylbenzylidene)hydrazinyl)-2-(pyridin-4-yl)pyrimidine]
- IC50: 100 nM
